Laboratory results: PubChem BioAssay AID652243 (Drosophila RNAi Screening Center, 2013)
Purpose: 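Fly genes required for human androgen receptor driven transcription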 (primary screen). Cell system: Drosophila S2R+ cells. Reagents: long dsRNA against Drosophila genes. Time to read-out: 72 h (48 h, then 24 h hormone). Challenge: synthetic androgen R1881 at 10 nM for 24 h. Measurement: 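Firefly light from an androgen-responsive reporter and Renilla control light per well, raw and unnormalised, for each of two replicates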. Reading the numbers: firefly reporter light: higher = more light from androgen-responsive reporter; Renilla control light: higher = more constitutive control signal (cell number, transfection). Rule for the call: 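Across duplicate plates, a knock-down whose log firefly/Renilla ratio shifted a set fold down or up from the GFP/LacZ control mean was a hit; the downward cut appears as both 1.5 and 3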. Calls: active = hit: reporter lowered or raised; inactive = no hit.
In all, the deposit lists about 24,000 reagents; below is an unselected part of those with a known target gene and a result. Over the whole deposit, 246 (1%) got an active call. 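Plates not normalised; calls are printed but the firefly/Renilla ratio behind them is not deposited; fold cut for lowering reported inconsistently.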 Raw values are not corrected between plates. Names joined by + are all predicted targets of the reagent. Not given: the amount of reagent.

no.	gene	dsRNA	firefly reporter light, replicate 1	firefly reporter light, replicate 2	Renilla control light, replicate 1	Renilla control light, replicate 2	outcome
1	MTF-1	DRSC11217	3.93e5	3.66e5	3.00e6	2.46e6	inactive
2	MTF-1	DRSC21341	8.49e5	8.07e5	1.58e6	1.41e6	inactive
3	CG33257	DRSC09917	2.09e5	1.91e5	2.06e6	1.61e6	inactive
4	CG42268	DRSC10171	1.92e5	1.70e5	3.32e6	2.16e6	inactive
5	CG42268	DRSC10702	1.85e5	1.95e5	2.28e6	2.10e6	inactive
6	CG42268	DRSC21797	3.71e5	3.66e5	2.01e6	2.47e6	inactive
7	CG42268	DRSC25299	5.20e5	3.96e5	5.18e5	5.28e5	inactive
8	CG42268	DRSC29387	4.48e5	6.58e5	1.10e6	1.10e6	inactive
9	mTerf5	DRSC16209	1.43e5	1.01e5	1.29e6	9.14e5	inactive
10	Dic1	DRSC14125	63590	63364	4.27e5	4.45e5	inactive
11	CG5151	DRSC23220	8.28e5	7.42e5	1.39e6	1.38e6	inactive
12	CG5151	DRSC29097	7.64e5	5.27e5	7.98e5	9.07e5	inactive
13	CG5151	DRSC39056	3.69e5	6.02e5	1.50e6	2.27e6	inactive
14	Obp99c	DRSC16262	80687	91955	1.08e6	1.69e6	inactive
15	CG11889 + CG11891	DRSC14426	1.49e5	2.36e5	2.23e6	2.52e6	inactive
16	CG11889 + CG11891	DRSC14427	1.57e5	2.02e5	2.51e6	2.48e6	inactive
17	CG11889 + CG11891	DRSC25728	6.06e5	6.00e5	7.37e5	8.74e5	inactive
18	Cdc45	DRSC17747	36736	30272	3.61e5	3.19e5	inactive
19	Cdc45	DRSC18164	1.26e5	1.49e5	2.73e6	1.93e6	inactive
20	CG14636	DRSC12223	68752	72361	2.40e6	1.58e6	inactive
21	CG14636	DRSC28578	5.36e5	7.70e5	1.16e6	1.19e6	inactive
22	CG32147	DRSC09346	1.93e5	50001	4.25e5	2.14e5	inactive
23	CG32147	DRSC24225	7.49e5	7.47e5	8.68e5	9.03e5	inactive
24	CG42822	DRSC38816	1.14e6	1.07e6	1.94e6	2.03e6	inactive
25	Spt5	DRSC07556	70677	99487	1.09e6	1.34e6	inactive
26	CG17224	DRSC00489	95215	1.61e5	9.80e5	1.70e6	inactive
27	Ggamma1	DRSC07435	1.11e6	5.77e5	3.31e6	2.06e6	inactive
28	HUWE1	DRSC20089	7.42e5	6.52e5	4.07e6	3.40e6	inactive
29	CG14646	DRSC12232	3.66e5	3.64e5	3.10e6	3.01e6	inactive
30	CG14646	DRSC21316	9.01e5	6.78e5	1.74e6	1.28e6	inactive
31	Rab32	DRSC05146	1.52e5	2.81e5	4.82e5	4.80e5	inactive
32	Rab32	DRSC07522	1.44e6	1.64e6	1.58e6	1.58e6	inactive
33	Rab32	DRSC28156	3.35e5	3.20e5	1.10e6	1.03e6	inactive
34	r2d2	DRSC03014	1.89e5	1.69e5	1.84e6	1.49e6	inactive
35	r2d2	DRSC29562	2.29e5	2.26e5	5.37e5	5.37e5	inactive
36	Tango5	DRSC18023	1.48e5	1.50e5	7.76e5	8.66e5	inactive
37	Tango5	DRSC25500	1.25e6	1.54e6	1.65e6	1.96e6	inactive
38	hang	DRSC23216	4.84e5	4.49e5	3.78e5	2.59e5	inactive
39	hang	DRSC29322	7.87e5	8.58e5	1.04e6	1.04e6	inactive
40	Dbp21E2	DRSC00616	5.66e5	4.78e5	2.22e6	1.77e6	inactive
41	Dbp21E2	DRSC28425	1.94e5	3.83e5	7.45e5	1.05e6	inactive
42	sds22	DRSC17052	69844	82756	9.97e5	9.30e5	inactive
43	sds22	DRSC36802					inactive
44	Cec-Psi1	DRSC21956	4.51e5	4.68e5	1.24e6	1.05e6	inactive
45	disp	DRSC12376	25857	23916	6.00e5	5.80e5	inactive
46	Rh4 + sina	DRSC11396	36636	43480	3.58e5	3.28e5	inactive
47	CG14739	DRSC14959	92584	1.10e5	1.43e6	1.59e6	inactive
48	CG15572	DRSC24999	1.14e6	7.63e5	8.96e5	7.11e5	inactive
49	CG33463	DRSC22915	4.64e5	9.99e5	1.15e6	2.19e6	inactive
50	CG33463	DRSC29923	5.16e5	5.77e5	1.42e6	1.49e6	inactive
51	pirk	DRSC04269	1.87e5	1.57e5	1.88e6	1.32e6	inactive
52	CG42505 + CG42504 + CG31358	DRSC15235	45451	75524	6.40e5	7.15e5	inactive
53	CG42505 + CG42504 + CG31358	DRSC15308	3.30e5	4.40e5	2.21e6	3.14e6	inactive
54	CG42505 + CG42504 + CG31358	DRSC15309	1.37e5	1.74e5	2.12e6	2.06e6	inactive
55	CG9705	DRSC11094	56371	72919	9.75e5	8.36e5	inactive
56	enc	DRSC08716	96666	81519	1.45e6	1.35e6	inactive
57	enc	DRSC27545	4.24e5	3.22e5	7.73e5	8.53e5	inactive
58	Gr22a	DRSC22283	6.82e5	7.18e5	2.49e6	1.85e6	inactive
59	Gr22a	DRSC26809	3.92e5	2.94e5	6.66e5	5.53e5	inactive

Targets listed so far whose target name begins with R or r:
gene	dsRNA	firefly reporter light, replicate 1	firefly reporter light, replicate 2	Renilla control light, replicate 1	Renilla control light, replicate 2	outcome
Rab32	DRSC05146	1.52e5	2.81e5	4.82e5	4.80e5	inactive
Rab32	DRSC07522	1.44e6	1.64e6	1.58e6	1.58e6	inactive
Rab32	DRSC28156	3.35e5	3.20e5	1.10e6	1.03e6	inactive
r2d2	DRSC03014	1.89e5	1.69e5	1.84e6	1.49e6	inactive
r2d2	DRSC29562	2.29e5	2.26e5	5.37e5	5.37e5	inactive
Rh4 + sina	DRSC11396	36636	43480	3.58e5	3.28e5	inactive
